# In PubChem BioAssay AID445 (National Center for Advancing Translational Sciences (NCATS), 2006):
# This is one part of the list. The main result of the screen is listed elsewhere. These columns were measured beside it and carry no call. The list favours compounds with an active or inconclusive main result. The note in brackets gives the kind of curve behind each potency; many fits are weak.
# Experiment: IkB Signaling
# Conditions: ABC-DLBCL IkBa-CBG/CBR dual luciferase ratio (green luciferase fused to IkBa over red control in OCI-Ly3 lymphoma cells), 4 h; measured here: control luc red channel unless noted
# In short: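 Curves were fitted separately to fusion (green), unfused (red) and ratio luminescence, then classed by r2, magnitude and activity. Cells: OCI-Ly3, 4 h compound plus doxycycline at 37C; 10 uM MG-132 defined full response.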
row,SMILES,AC50
1,COc1cccc(-c2cn3nc(C)c(C)nc3n2)c1,"20 µM [falling, single point]"
2,COc1ccccc1C(=O)N1CCC(c2noc(-c3ccc(S(=O)(=O)N4CCCC4)cc3)n2)CC1,"20 µM [falling, partial curve]"
3,O=C(NCCc1ccc(Cl)cc1)c1ccc(CS(=O)Cc2ccccc2Cl)o1 (stereo not given),"15.8 µM [falling, partial curve]"
4,COc1cc2c(cc1OC)C(C)N(C(=O)C1COc3ccccc3O1)CC2 (stereo not given),"20 µM [falling, partial curve]"
5,c1ccc(-c2csc3nnc(SCc4ccc5c(c4)OCO5)n23)cc1,"25.1 µM [falling, partial curve]"
6,COc1ccc(C(=O)Nc2ccc(-c3ccc(C)o3)cc2)cc1S(=O)(=O)N1CCOCC1,"39.8 µM [rising, single point] [measured here: IkB-luc green channel]"
7,Cn1c(=O)n(C)c2cc(NS(=O)(=O)c3ccc(F)cc3)ccc21,"31.6 µM [rising, partial curve] [measured here: IkB-luc green channel]"
8,COc1cccc(C(=O)Nc2ccc3nc(SCC(=O)N4CCOCC4)sc3c2)c1,"3.98 µM [falling, partial curve]"
9,COc1cc2nc(NCCC(C)C)n3nc(-c4ccccc4)nc3c2cc1OC,"0.1 µM [falling, full curve]"
10,CCCCS(=O)(=O)c1oc(-c2cccs2)nc1S(=O)(=O)c1ccccc1,"3.98 µM [falling, partial curve]"
11,Cc1nn(-c2ccccc2)c(N2CCCC2)c1/C=N/n1cnc2scc(-c3ccccc3)c2c1=O,"6.31 µM [falling, partial curve]"
12,Cc1cc(C)n2c(Nc3ccc(Cl)cc3)c(-c3ccsc3)nc2n1,"12.6 µM [falling, partial curve]"
13,Cc1ccc2c(CN3CCN(C(=O)c4ccc(F)cc4)CC3)cc(=O)oc2c1,"25.1 µM [falling, single point]"
14,Cc1ccc(OCC(=O)N(c2ccc(C)cc2)S(=O)(=O)c2ccc(Cl)cc2)cc1,"31.6 µM [falling, partial curve]"
15,CCOc1ccccc1NC(=O)CSc1nc(=O)[nH]c2c1CCCC2,"12.6 µM [falling, partial curve]"
16,CC(C)(C)c1ccc(C(=O)NCCc2csc3nc(-c4ccccc4F)nn23)cc1,"20 µM [falling, partial curve]"
17,COc1ccc(C2(Nc3cccc(C(=O)O)c3C)C(=O)c3ccccc3C2=O)cc1,"15.8 µM [falling, partial curve]"
18,Cn1nc(-c2ccc(Cl)cc2)c2cc(C(=O)N3CCCC3)sc21,"2.51 µM [falling, full curve, poor fit]"
19,COc1ccc(-c2csc3nc(-c4ccccc4C)oc(=O)c23)cc1OC,"3.16 µM [falling, full curve, poor fit]"
20,Cc1ccccc1CS(=O)(=O)c1nnc([C@H](CC(C)C)NC(=O)OC(C)(C)C)o1,"12.6 µM [falling, partial curve]"

# Reprinted from the entries so far for reference:
row,SMILES,AC50
2,COc1ccccc1C(=O)N1CCC(c2noc(-c3ccc(S(=O)(=O)N4CCCC4)cc3)n2)CC1,"20 µM [falling, partial curve]"
3,O=C(NCCc1ccc(Cl)cc1)c1ccc(CS(=O)Cc2ccccc2Cl)o1 (stereo not given),"15.8 µM [falling, partial curve]"
4,COc1cc2c(cc1OC)C(C)N(C(=O)C1COc3ccccc3O1)CC2 (stereo not given),"20 µM [falling, partial curve]"

# Following part:

row,SMILES,AC50
1,COc1ccc(NC(=O)CSc2oc(-c3cccs3)nc2S(=O)(=O)c2ccc(C)cc2)c(OC)c1,"0.316 µM [falling, full curve]"
2,CN(CC(=O)Nc1nc2ccccc2s1)S(=O)(=O)c1ccccc1,"15.8 µM [falling, partial curve]"
3,CCOC(=O)c1c(C)oc2ncnc(N3CCN(c4ccccc4F)CC3)c12,"12.6 µM [falling, partial curve, poor fit]"
4,COc1ccccc1NC(=O)c1ccc(COc2ccccc2OC)o1,"15.8 µM [falling, partial curve]"
5,Cn1c(=O)c2c(-c3ccc(Cl)cc3)n(Cc3ccccc3)cc2n(C)c1=O,"15.8 µM [falling, single point]"
6,COc1ccc(CNC(=O)CSc2nc3ccccc3nc2Cc2ccccc2)cc1,"5.01 µM [falling, partial curve]"
7,COc1cccc(/C=C/c2nc(C#N)c(NCCN(C)C)o2)c1,"31.6 µM [falling, single point]"
8,CN(Cc1ccccc1)C(=O)c1ccc2c(c1)N(Cc1ccccc1F)C(=O)c1ccccc1S2(=O)=O,"12.6 µM [falling, partial curve]"
9,CCCOc1cccc(NC(=O)c2c(-c3ccccc3Cl)noc2C)c1,"15.8 µM [falling, partial curve]"
10,CN(C(=O)CSc1nc2ccc(NC(=O)COc3ccc(Cl)cc3)cc2s1)c1ccccc1,"3.16 µM [falling, full curve]"
11,COc1cc(/C=C/c2nc(C#N)c(N3CCCCCC3)o2)cc(OC)c1OC,"12.6 µM [falling, partial curve]"
12,Cc1cccc(C)c1NC(=O)Cn1c(=O)n(Cc2ccccc2)c(=O)c2c(C)c(C(=O)N(C)C)sc21,"3.98 µM [rising, full curve]"
13,Cc1ccc(Cl)cc1-n1c(=O)cc(N2CCN(c3ccc(F)cc3)CC2)[nH]c1=O,"39.8 µM [falling, single point]"
14,CCn1cnc2sc(C(=O)N(Cc3ccc(N(C)C)cc3)Cc3ccco3)c(C)c2c1=O,"12.6 µM [falling, partial curve, poor fit]"
15,Cc1nn(-c2ccccc2)c(C)c1C(=O)OCC(=O)c1c(N)n(CC(C)C)c(=O)n(C)c1=O,"12.6 µM [falling, partial curve]"
16,CCCCNC(=O)c1nn(-c2ccc(CC)cc2)nc1CO,"25.1 µM [falling, single point]"
17,Cc1cccc(NC(=O)C2CCN(S(=O)(=O)c3ccc(F)cc3)CC2)c1C,"12.6 µM [falling, partial curve]"
18,O=C(O)CCN1C(=O)C(=C2CCCCCC2)SC1=S,"2 µM [falling, partial curve]"
19,CCCn1c(=O)sc2cc(NC(=O)COc3ccc(Cl)cc3)ccc21,"15.8 µM [falling, partial curve]"
20,COc1cccc(CN(C(=O)c2oc3cc(C)ccc3c2C)C2CCS(=O)(=O)C2)c1 (stereo not given),"31.6 µM [falling, single point]"
